Patent publication US20130266605A1, “PEPTIDE INHIBITORS OF CD40L SIGNALING AND USES THEREFOR” (PHYLOGICA LIMITED, priority 2010, published 2013)
Numbering of substitutions follows the chain as printed. No constants are given. Whether binding was seen depends on the method and setting. Some results given as binding are weak or reduced against the parent protein; the word gives no strength.

B1: CD40L M8_720 (peptide)
peptide: RLPETRKAQAALATKYGIYGFCYYHYWFNGRRILESPVDAMLESGEPDFPFMLCWANENWT
notes: Base peptide
B2: CD40L M9_763 (peptide)
peptide: LDLFGDFNGLPEGADRTEFYQHEGHWQNRMILGDSLQVMASLAEREGLRGKVQCIYFDPPYGIKFN
notes: Base peptide
B3: CD40L M9_789 (peptide)
peptide: LLAEQAGTLKSELEAMPLGEYEHAARYVSEVECNWKTFAGNYSECDHCHANHQDWITDIELEESELEVNDYHWILHYTHDEDVEDEMRIHDEHEAKFYYFWPNFT
notes: Base peptide
B4: C02_40L_0204_0992 (peptide)
peptide: LLGRDGWPVSIGPDSQMSLEVIDRHSEALFEFLWCPVCGHEVFSHIPFEGVFCK
B5: C02_40L_0505_1072 (peptide)
peptide: LGRDGWPVSIGPDSQMSLEVIDRHSEALFEFLWCPVCGHEVFSHIPFEGVFC
B6: C02_40L_0303_1020 (peptide)
peptide: LFGSRPLSRSCLELLHEESEISVEAVVTHPEGHDGWWDGALRSKAEEYGYPVIEENEVFECELDYIISVLYYEILDAELLEHPKQGGLNLHQAELPRYRG
B7: C02_40L_0503_1053 (peptide)
peptide: B6 peptide with S43P
B8: C02_40L_0704_1100 (peptide)
peptide: B6 peptide
B9: C02_40L_0304_1028 (peptide)
peptide: LCDPNGRAEAIPEAKSDVTVTHQFITIWSEWIRMDVLMTGVYGRCGTAVIDHLHDDDAYDFTYLN
B10: C02_40L_0404_1045 (peptide)
peptide: B9 peptide with C2G, L64F
B11: C02_40L_0405_1048 (peptide)
peptide: LYEYNADTPTSIYEAGVFQWLWLEDMIQQGALPEATDQFNSLHDQLAERFKAIFPNGGFVHFA
B12: C02_40L_0604_1080 (peptide)
peptide: LYEYNADTPTSIYEAGVFQWLWLEDMIQQGALPEATDQFNSLHDQLAERFKAIFPN
B13: C02_40L_0803_1125 (peptide)
peptide: LSACTPSGCTHPGSRGDDLQMATQWIFTLRCRTVGNSTRDVRISTQGSPHIELIDPFGNGALWVIL
B14: C02_40L_0803_1127 (peptide)
peptide: B13 peptide
B15: C02_40L_0804_1148 (peptide)
peptide: B13 peptide
B16: C02_40L_0804_1149 (peptide)
peptide: B13 peptide
B17: C02_40L_0804_1152 (peptide)
peptide: B13 peptide
B18: C02_40L_0804_1155 (peptide)
peptide: B13 peptide
B19: C02_40L_0804_1162 (peptide)
peptide: B13 peptide
B20: C02_40L_0804_1164 (peptide)
peptide: B13 peptide
B21: C02_40L_0804_1151 (peptide)
peptide: LVQGSKEATTIDESAELEALADAVAEEILSSDGIYFLGAGSTIKRIKDKIGIEGTLLGVDVVRVENGKAKLLVKDA
B22: C02_40L_0804_1173 (peptide)
peptide: B21 peptide
B23: Cys_M1_6S-Cys_M1_9S heterodimer (peptide)
peptide 1: CHPFSIKNVFSIWNFFSVY
peptide 2: CPPRYNLFFLFRFYSSFRRDYLYF
modifications: disulfide through the N-terminal cysteine
B24: Cys_M1_6S-Cys_M1_189S heterodimer (peptide)
peptide 1: CHPFSIKNVFSIWNFFSVY
peptide 2: CLLLFFFSPPFSIFSFSLTTLS
modifications: disulfide through the N-terminal cysteine

Biological target: T1, CD40 ligand (UniProt P29965 108-261, limits assumed)
T1 sequence (looked up): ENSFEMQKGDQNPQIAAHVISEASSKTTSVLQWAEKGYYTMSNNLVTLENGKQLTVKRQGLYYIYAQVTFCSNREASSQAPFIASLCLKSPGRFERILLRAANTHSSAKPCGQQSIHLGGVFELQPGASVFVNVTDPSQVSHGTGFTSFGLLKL
Test: Octet Red label-free (BLI)

Question: Which binding does the source give for HPFSIKNVFCIWNFFSVY (Base peptide) [CD40L M1_6] here?
Answer: binds

Question: For B1, which binding is on record?
Answer: binds

Question: Which binding does the source give for LWRLNEWNYSDAELLSLIEWCIDH (Base peptide) [CD40L M8_721] here?
Answer: binds

Question: For B2, which binding is on record?
Answer: binds

Question: For B3, which binding is on record?
Answer: binds

Question: With PPRYNLFFLFRFYCSFRRDYLYF (Base peptide) [CD40L M1_9] as the binder, how does the binding read?
Answer: binds

Question: Which binding does the source give for LPFVPYRSHVLKYGWFFPVQWSIFAVLPFQYLHRCR (Base peptide) [CD40L M1_18] here?
Answer: binds

Question: How did the binding turn out when HSFVLFGVNVPFNIIDFQMRVKC (Base peptide) [CD40L M1_42] was run?
Answer: binds

Biological target: T1, CD40 ligand
Test: phage display screen on CD40L

Question: How did the binding turn out when B4 was run?
Answer: binds

Question: Which binding does the source give for B5 here?
Answer: binds

Question: B6 was tested. Which binding did it give?
Answer: binds

Question: With B7 as the binder, how does the binding read?
Answer: binds

Question: B8 was tested. Which binding did it give?
Answer: binds

Question: Which binding does the source give for B9 here?
Answer: binds

Question: B10 was tested. Which binding did it give?
Answer: binds

Question: With B11 as the binder, how does the binding read?
Answer: binds

Question: How did the binding turn out when B12 was run?
Answer: binds

Question: Which binding does the source give for PVEKLNNLTGTPLVASFTLFVCQSGQNTLLECTLIV [C02_40L_0803_1122] here?
Answer: binds

Question: For PVEKLNNLTGTPLVASFTLFVCQSGQNTLLECTLIV [C02_40L_0804_1172], which binding is on record?
Answer: binds

Question: For B13, which binding is on record?
Answer: binds

Question: Which binding does the source give for B14 here?
Answer: binds

Question: How did the binding turn out when B15 was run?
Answer: binds

Question: How did the binding turn out when B16 was run?
Answer: binds

Question: With B17 as the binder, how does the binding read?
Answer: binds

Question: With B18 as the binder, how does the binding read?
Answer: binds

Question: How did the binding turn out when B19 was run?
Answer: binds

Question: For B20, which binding is on record?
Answer: binds

Question: B21 was tested. Which binding did it give?
Answer: binds

Question: B22 was tested. Which binding did it give?
Answer: binds

Biological target: T1, CD40 ligand
Test: chemiluminescent proximity assay

Question: CHPFSIKNVFSIWNFFSVY (disulfide between the N-terminal cysteines of the two chains) [Cys_M1_6S homodimer] was tested. Which binding did it give?
Answer: binds

Question: For B23, which binding is on record?
Answer: binds

Question: Which binding does the source give for B24 here?
Answer: binds

Biological target: T1, CD40 ligand
Test: primary biopanning with CD40L, phage display

Question: Which binding does the source give for HPFSIKNVFCIWNFFSVY (Base peptide) [CD40L M1_6] here?
Answer: binds

Question: How did the binding turn out when PFTWRPTIFWIIQLIVYMRHF (Base peptide; also called CD40L M1-206) [CD40L M7_206] was run?
Answer: binds

Question: With LCEMIAIYVFLWKKVFL [CD40L M7_217] as the binder, how does the binding read?
Answer: binds

Question: For B1, which binding is on record?
Answer: binds

Question: For LWRLNEWNYSDAELLSLIEWCIDH (Base peptide) [CD40L M8_721], which binding is on record?
Answer: binds

Question: With B2 as the binder, how does the binding read?
Answer: binds

Question: Which binding does the source give for B3 here?
Answer: binds

Question: PPRYNLFFLFRFYCSFRRDYLYF (Base peptide) [CD40L M1_9] was tested. Which binding did it give?
Answer: binds

Question: LPFVPYRSHVLKYGWFFPVQWSIFAVLPFQYLHRCR (Base peptide) [CD40L M1_18] was tested. Which binding did it give?
Answer: binds

Question: How did the binding turn out when DAAGREFFQIAGLFSFRHHWWQA [CD40L M1_30] was run?
Answer: binds

Question: How did the binding turn out when HSFVLFGVNVPFNIIDFQMRVKC (Base peptide) [CD40L M1_42] was run?
Answer: binds

Question: With PRWVRNRFYCLFVPSGVQRGGIHLWFSNWVR (Base peptide) [CD40L M1_50] as the binder, how does the binding read?
Answer: binds

Question: With SIQYHWRYSRFKYYFQLIWVYYCHV [CD40L M1_82] as the binder, how does the binding read?
Answer: binds

Question: Which binding does the source give for LLYVKVICFFCMLVQYNNFQTYK (Base peptide) [CD40L M2_159] here?
Answer: binds

Question: How did the binding turn out when LLLFFFSPPFSIFCFSLTTLS (Base peptide) [CD40L M7_189] was run?
Answer: binds

Biological target: T1, CD40 ligand
Test: Alphascreen proximity assay, peptide titrated; blocked interaction: CD40L with CD40

Question: With CHPFSIKNVFSIWNFFSVY (disulfide between the N-terminal cysteines of the two chains) [Cys_M1_6S homodimer] as the binder, how does the binding read?
Answer: binds

Question: B23 was tested. Which binding did it give?
Answer: binds

Question: Which binding does the source give for B24 here?
Answer: binds

Question: Which binding does the source give for CHPFSIKNVFSIWNFFSVY [Cys_M1_6S] here?
Answer: binds

Biological target: T1, CD40 ligand
Test: Alphascreen proximity assay, peptide titrated against 0.75nM CD40L; blocked interaction: CD40L with CD40

Question: How did the binding turn out when CHPFSIKNVFSIWNFFSVY [Cys_M1_6S] was run?
Answer: binds

Biological target: T1, CD40 ligand
Test: Alphascreen proximity assay, peptide dimer titrated against 0.75nM CD40L; blocked interaction: CD40L with CD40

Question: Which binding does the source give for B24 here?
Answer: binds
